In patent publication US20150368611A1:
No constants are given. Whether binding was seen depends on the method and setting. Binding seen in cells or lysates may run through a third protein. Some binding calls cover weakened binding; strength is not graded here.

By UniProt entry, the sequences of proteins in these tests, tags left out. Where a name states a change or a piece, a line headed by the entry shows the natural chain unless it says otherwise. Chains listed by the source or under a name are the forms on record and can include a tag or linker.
RORγt, mouse (P51450, form named): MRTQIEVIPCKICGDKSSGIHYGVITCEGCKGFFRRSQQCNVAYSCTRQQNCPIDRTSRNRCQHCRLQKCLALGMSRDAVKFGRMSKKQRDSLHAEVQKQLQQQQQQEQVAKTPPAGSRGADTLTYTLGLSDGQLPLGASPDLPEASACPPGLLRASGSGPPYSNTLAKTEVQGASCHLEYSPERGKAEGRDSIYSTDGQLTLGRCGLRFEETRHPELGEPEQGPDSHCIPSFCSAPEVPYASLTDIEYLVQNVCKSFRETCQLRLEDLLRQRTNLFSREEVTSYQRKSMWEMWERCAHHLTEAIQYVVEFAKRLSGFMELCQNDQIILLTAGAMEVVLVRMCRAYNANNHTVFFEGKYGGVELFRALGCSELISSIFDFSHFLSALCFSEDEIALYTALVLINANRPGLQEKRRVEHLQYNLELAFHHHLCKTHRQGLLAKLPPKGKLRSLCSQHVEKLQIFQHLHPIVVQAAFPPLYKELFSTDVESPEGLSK
UniProt P28033: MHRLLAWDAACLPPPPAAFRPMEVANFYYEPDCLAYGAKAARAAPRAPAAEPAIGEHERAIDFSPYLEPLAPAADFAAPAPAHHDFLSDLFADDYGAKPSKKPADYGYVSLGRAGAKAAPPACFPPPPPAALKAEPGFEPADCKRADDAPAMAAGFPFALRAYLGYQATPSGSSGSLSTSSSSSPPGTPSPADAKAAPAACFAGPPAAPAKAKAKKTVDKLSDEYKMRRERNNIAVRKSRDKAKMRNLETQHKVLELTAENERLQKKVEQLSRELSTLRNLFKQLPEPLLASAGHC

Assays:
RORγt, mouse (mouse) [1] = target: RORγt, mouse (mouse) (UniProt P51450); experiment: co-immunoprecipitation from whole cell extracts of transfected 293T cells (FIG. 5E legend)
RORγt, mouse (mouse) [2] = target: RORγt, mouse (mouse) (UniProt P51450); experiment: co-immunoprecipitation from whole cell extracts of transfected 293T cells (anti-Myc IP, immunoblot)

- binding (RORγt, mouse (mouse) [1]): binds
- binding (RORγt, mouse (mouse) [2]): binds
Substance: C/EBPβ (CCAAT/enhancer binding protein beta), full-length mouse (from UniProt P28033 1-296)
